Measurements taken from PubChem BioAssay AID2685 (National Center for Advancing Translational Sciences (NCATS), 2010).
The other results are listed elsewhere or left out. These are further read-outs of the screen, such as a control signal, another cell line or another target. No call is given for them. Most of these compounds were active or inconclusive in the main read-out, so they are no random draw. The note in brackets gives the kind of curve behind each potency; many fits are weak.

Assay: qHTS Assay for Lipid Storage Modulators in Drosophila S3 Cells;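 on cell number change: cells counted by Cell Tracker Red CMTPX staining in the red channel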
Settings: BODIPY lipid droplet fluorescence, 18-24 h; for cell number change: measured here: cell count max response, cells fed with added oleic acid
In short: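 Drosophila S3 cells loaded with oleic acid (400 uM, as added) and compounds at several concentrations; lipid droplets imaged by 488-nm laser-scanning cytometry, 500–530 nm intensity and object ratio to cell channel. Percent activity normalized to 20 uM Triacsin C.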

[1] = measured here: cell number channel AC50, cells fed with added oleic acid
[2] = measured here: lipid fluorescence (Fed channel) AC50, cells fed with added oleic acid

| Structure (SMILES) | cell number change | AC50 [1] | AC50 [2] |
| --- | --- | --- | --- |
| Cc1cccc(NC(=O)NNC(=O)c2ccc3ccccc3c2)c1 | 33% | 32.6 µM [rising, partial curve, poor fit] |  |
| COc1ccccc1C1NC(=O)NC(C)=C1C(=O)Nc1cccc(C)c1C (configuration not stated) | -16.4% |  |  |
| CCOc1cc(/C=N/Nc2nncc(-c3ccccc3)n2)ccc1O | -4.81% |  |  |
| COCc1cc(C)nc(SCC(=O)Nc2cccc3cccnc23)c1C#N | 0.0616% |  | 0.517 µM [rising, single point] |
| C=CCn1c(SCC(=O)Nc2ccc(Br)cc2)nc(O)c(CC)c1=O | 19.8% | 0.00517 µM [rising, full curve, poor fit] |  |
| COc1ccc(Br)cc1/C=N/Nc1ccc(Cl)c(C(=O)O)c1 |  | 6.51 µM [rising, single point] |  |
| COc1ccc(C(=O)C(O)C(c2ccc(C)cc2)N2CCOCC2)cc1OC (configuration not stated) | 4.26% |  | 29.1 µM [rising, single point] |
| CCN(CC)S(=O)(=O)c1ccc2[nH]c(=O)cc(C(=O)NCc3ccccc3)c2c1 | 14.6% |  |  |
| C=CCNc1sc(C(=O)c2ccc(C)cc2)c(N)c1C#N | 10.2% |  |  |
| COc1ccc(CNC(=O)c2c(-c3c(F)cccc3Cl)noc2C)cc1 | 4.96% | 0.82 µM [rising, single point] | 0.13 µM [rising, full curve, poor fit] |
| CCn1c(N2CCN(C(=O)NC3CCCCC3)CC2)nc2ccccc21 | -54.9% | 20.6 µM [falling, single point] | 20.6 µM [falling, single point] |
| COc1ccc(C(=O)NCC(=O)N2CCNC(=O)C2)cc1OC | 13.4% |  |  |
| Cc1ccc(C(C(=O)NC2CCCC2)N(Cc2ccc3c(c2)OCO3)C(=O)Cc2cccs2)cc1 (configuration not stated) | -38.6% | 29.1 µM [falling, single point] |  |
| O=C(NCCN1CCN(Cc2ccc([N+](=O)[O-])cc2)CC1)C(=O)Nc1ccccc1 | -107% | 29.1 µM [falling, single point] | 29.1 µM [falling, single point] |
| Cc1sc2nc(C(C)C)nc(SCC(=O)NCc3ccco3)c2c1C | -36.5% | 9.2 µM [falling, partial curve, poor fit] | 23.1 µM [falling, single point] |
| O=c1[nH]c2ccccc2nc1-c1cccs1 | -11.7% |  | 6.51 µM [falling, single point] |
| CCN(C(=O)COC(=O)/C=C/c1nc2ccccc2s1)C1CCS(=O)(=O)C1 (configuration not stated) | -27.5% | 3.26 µM [falling, full curve, poor fit] |  |

A few values from the entries so far.
Value for `Cc1sc2nc(C(C)C)nc(SCC(=O)NCc3ccco3)c2c1C` under AC50 [1]: 9.2 µM [falling, partial curve, poor fit]
Value for `O=C(NCCN1CCN(Cc2ccc([N+](=O)[O-])cc2)CC1)C(=O)Nc1ccccc1` under cell number change: -107%
